PubChem BioAssay AID504784 | Drosophila RNAi Screening Center | 2011
The screen tested about 17,000 reagents; below is a random part of those that have a named target and a result. 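Each column is one replicate's B-score; the combined score over replicates was not deposited, so single values may mislead.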 A plus sign joins genes that one reagent is predicted to hit.

Aim: 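Search for regulators of lipid droplet storage in oleate-fed fly cells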 (primary screen)
System: Drosophila Kc167 embryonic cells
Reagent: long dsRNA against Drosophila genes, about 250 ng dsRNA per well
Time to read-out: 4 days
Conditions: cells fed 400 µM oleic acid bound to BSA
Measured: 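Cells imaged and segmented; ratio of lipid droplet area to nuclear area, log-transformed, then normalised as a B-score over the screen; higher means more stored lipid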
Direction: droplet/nuclear area B-score: higher = more stored lipid (overstorage)

| predicted target | dsRNA | droplet/nuclear area B-score, replicate 1 | droplet/nuclear area B-score, replicate 2 | droplet/nuclear area B-score, replicate 3 |
| --- | --- | --- | --- | --- |
| CG12123 | DRSC17818 | -1.4 | 0.422 | 0.94 |
| Wdr81 | DRSC02985 | -0.674 | -1.11 | – |
| PIG-U | DRSC02193 | -1.83 | -1.24 | – |
| CG33791 + CG18170 | DRSC08523 | 0.421 | 0.608 | – |
| CG33791 + CG18170 | DRSC08601 | -1.01 | -0.426 | – |
| eIF4G1 | DRSC17218 | 6.4 | 5.32 | – |
| CG14017 | DRSC02348 | -1.32 | -0.116 | – |
| tap | DRSC11402 | 0.0202 | 1.48 | – |
| CG30495 | DRSC06703 | 0.956 | 0.091 | – |
| CG42843 (retired record) | DRSC02231 | -1.19 | 0.141 | – |
| CG42843 (retired record) | DRSC02233 | -0.664 | -1.54 | – |
| RpL38 | DRSC07818 | 4.12 | 4.94 | – |
| viaf | DRSC10326 | 1.22 | -0.355 | – |
| Rgk2 | DRSC06503 | -0.853 | 0.54 | – |
| Rgk2 | DRSC21651 | -1.28 | 0.00208 | – |
| Ccp84Ag | DRSC12592 | 0.968 | 0.916 | – |
| Ccp84Ag | DRSC22085 | 2.01 | 0.132 | – |
| Or19a | DRSC20684 | -1.8 | -1.19 | – |
| Asx | DRSC05924 | 1.22 | 0.492 | – |
| CG8613 | DRSC07222 | -0.0556 | 0.219 | – |
| CG11630 | DRSC03696 | -1.47 | 1.42 | – |
| uex | DRSC20786 | -0.546 | -0.714 | – |
| bsk | DRSC03499 | -0.991 | 0.384 | – |
| CG42329 | DRSC00373 | 0.0188 | -0.0415 | – |
| CG42329 | DRSC00682 | 0.679 | -0.411 | – |
| Septin2 | DRSC16855 | 3.88 | -0.697 | – |
| OtopLa | DRSC17787 | -0.672 | -0.674 | -1.53 |
| OtopLa | DRSC18133 | -1.13 | -3.25 | – |
| OtopLa | DRSC23226 | -0.363 | -0.213 | – |
| karr | DRSC20681 | -0.837 | -0.255 | – |
| MFS16 | DRSC04051 | -1.46 | 0.894 | – |
| CG30183 | DRSC04450 | -0.00966 | 1.72 | – |
| CG30183 | DRSC04472 | -0.458 | -1.04 | – |
| RNaseZ | DRSC06845 | 0.253 | 1.85 | – |

2 entries already listed, sorted by “droplet/nuclear area B-score, replicate 1”, low to high.
| predicted target | dsRNA | droplet/nuclear area B-score, replicate 1 | droplet/nuclear area B-score, replicate 2 | droplet/nuclear area B-score, replicate 3 |
| --- | --- | --- | --- | --- |
| Or19a | DRSC20684 | -1.8 | -1.19 | – |
| Ccp84Ag | DRSC22085 | 2.01 | 0.132 | – |
